Source: the supplement of paper PMC12067093, “Discovery and optimisation of a covalent ligand for TRIM25 and its application to targeted protein ubiquitination” (Chemical Science, 2025)
The other results are listed elsewhere or left out.

Protein sequences, listed by entry. Tags and fused reporters are not part of them. Lines headed by an entry give the natural chain unless they say otherwise; changes in a name come on top.
UniProt Q9NR19, whole entry, looked up: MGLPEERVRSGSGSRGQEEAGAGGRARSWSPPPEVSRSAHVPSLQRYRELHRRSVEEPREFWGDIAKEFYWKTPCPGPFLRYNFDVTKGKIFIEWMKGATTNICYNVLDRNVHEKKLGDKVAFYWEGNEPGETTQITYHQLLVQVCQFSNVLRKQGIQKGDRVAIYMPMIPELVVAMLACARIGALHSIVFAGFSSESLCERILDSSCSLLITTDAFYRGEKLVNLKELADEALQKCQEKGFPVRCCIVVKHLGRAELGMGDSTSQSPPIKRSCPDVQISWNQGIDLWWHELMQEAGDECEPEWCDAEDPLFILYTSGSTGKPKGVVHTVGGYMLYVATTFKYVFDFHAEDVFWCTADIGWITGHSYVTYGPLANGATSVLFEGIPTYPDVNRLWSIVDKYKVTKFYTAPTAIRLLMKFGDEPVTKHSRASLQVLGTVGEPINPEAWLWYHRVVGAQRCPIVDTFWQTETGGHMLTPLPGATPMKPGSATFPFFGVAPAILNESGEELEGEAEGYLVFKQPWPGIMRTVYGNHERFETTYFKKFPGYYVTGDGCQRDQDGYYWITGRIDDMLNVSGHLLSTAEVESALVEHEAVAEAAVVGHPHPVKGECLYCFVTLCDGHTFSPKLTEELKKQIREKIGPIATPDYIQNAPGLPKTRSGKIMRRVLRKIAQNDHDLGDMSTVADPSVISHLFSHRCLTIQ
UniProt O96019, whole entry, looked up: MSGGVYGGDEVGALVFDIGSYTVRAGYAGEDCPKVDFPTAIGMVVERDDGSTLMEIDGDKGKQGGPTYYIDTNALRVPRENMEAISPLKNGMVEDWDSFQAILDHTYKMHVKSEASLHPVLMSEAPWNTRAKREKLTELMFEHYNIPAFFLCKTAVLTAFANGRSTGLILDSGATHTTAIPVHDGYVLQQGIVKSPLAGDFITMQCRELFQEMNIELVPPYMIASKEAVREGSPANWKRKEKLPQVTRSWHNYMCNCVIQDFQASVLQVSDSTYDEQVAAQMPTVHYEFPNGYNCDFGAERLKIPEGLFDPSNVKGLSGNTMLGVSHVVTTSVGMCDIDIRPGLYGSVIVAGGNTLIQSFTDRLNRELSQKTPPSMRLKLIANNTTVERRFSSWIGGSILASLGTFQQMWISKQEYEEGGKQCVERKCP
UniProt Q9ULC5: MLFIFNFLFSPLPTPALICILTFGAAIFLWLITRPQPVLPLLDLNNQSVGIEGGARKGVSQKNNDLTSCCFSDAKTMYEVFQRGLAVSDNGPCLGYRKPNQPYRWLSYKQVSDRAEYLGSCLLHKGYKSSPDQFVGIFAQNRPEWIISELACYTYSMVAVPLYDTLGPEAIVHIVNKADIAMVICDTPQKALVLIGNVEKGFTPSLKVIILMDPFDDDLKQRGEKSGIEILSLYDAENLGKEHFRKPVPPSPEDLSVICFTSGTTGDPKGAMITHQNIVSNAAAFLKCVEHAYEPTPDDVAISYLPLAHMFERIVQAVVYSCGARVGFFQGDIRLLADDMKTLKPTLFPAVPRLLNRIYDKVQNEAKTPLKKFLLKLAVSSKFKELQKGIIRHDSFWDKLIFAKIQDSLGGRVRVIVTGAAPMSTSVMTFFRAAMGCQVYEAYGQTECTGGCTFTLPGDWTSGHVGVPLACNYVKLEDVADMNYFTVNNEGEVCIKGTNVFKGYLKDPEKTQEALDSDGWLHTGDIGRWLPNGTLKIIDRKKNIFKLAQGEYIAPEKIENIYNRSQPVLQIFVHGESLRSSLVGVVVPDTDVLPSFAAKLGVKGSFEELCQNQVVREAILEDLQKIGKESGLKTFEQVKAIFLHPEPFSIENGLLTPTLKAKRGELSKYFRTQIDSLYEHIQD
UniProt P24666: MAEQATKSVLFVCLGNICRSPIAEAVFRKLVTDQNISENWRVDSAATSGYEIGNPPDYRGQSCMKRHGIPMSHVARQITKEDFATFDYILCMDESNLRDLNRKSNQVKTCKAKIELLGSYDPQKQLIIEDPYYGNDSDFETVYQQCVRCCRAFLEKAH
UniProt P55265: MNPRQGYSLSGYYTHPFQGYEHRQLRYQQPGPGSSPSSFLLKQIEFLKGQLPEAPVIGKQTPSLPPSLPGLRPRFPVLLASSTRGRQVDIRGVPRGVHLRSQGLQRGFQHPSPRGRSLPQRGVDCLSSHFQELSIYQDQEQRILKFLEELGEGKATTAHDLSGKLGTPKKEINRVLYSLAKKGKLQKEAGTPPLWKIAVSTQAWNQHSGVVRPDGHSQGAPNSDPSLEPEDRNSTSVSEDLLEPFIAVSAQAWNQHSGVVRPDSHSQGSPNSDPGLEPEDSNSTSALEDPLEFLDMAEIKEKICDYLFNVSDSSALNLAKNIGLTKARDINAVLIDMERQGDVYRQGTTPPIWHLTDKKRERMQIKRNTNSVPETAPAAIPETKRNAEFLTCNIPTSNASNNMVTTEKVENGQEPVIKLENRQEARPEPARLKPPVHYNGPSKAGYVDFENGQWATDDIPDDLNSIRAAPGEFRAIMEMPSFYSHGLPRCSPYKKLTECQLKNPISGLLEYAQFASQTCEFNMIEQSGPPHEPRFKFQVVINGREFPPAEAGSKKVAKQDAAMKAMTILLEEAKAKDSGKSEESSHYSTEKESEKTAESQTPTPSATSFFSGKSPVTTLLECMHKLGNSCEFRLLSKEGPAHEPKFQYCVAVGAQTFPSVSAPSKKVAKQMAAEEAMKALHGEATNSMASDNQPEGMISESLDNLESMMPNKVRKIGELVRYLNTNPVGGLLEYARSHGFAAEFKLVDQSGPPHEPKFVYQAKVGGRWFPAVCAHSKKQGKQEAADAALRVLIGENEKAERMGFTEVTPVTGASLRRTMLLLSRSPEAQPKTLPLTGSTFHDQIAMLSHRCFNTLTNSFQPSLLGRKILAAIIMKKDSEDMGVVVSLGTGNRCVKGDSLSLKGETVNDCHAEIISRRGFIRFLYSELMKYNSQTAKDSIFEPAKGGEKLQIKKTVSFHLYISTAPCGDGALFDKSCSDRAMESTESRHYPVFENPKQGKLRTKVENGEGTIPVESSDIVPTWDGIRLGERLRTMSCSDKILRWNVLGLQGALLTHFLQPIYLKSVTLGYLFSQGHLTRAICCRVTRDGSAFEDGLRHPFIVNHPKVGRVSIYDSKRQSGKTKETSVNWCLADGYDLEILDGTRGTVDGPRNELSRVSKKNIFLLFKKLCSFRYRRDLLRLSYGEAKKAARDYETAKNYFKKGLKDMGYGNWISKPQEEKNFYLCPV
UniProt Q16186: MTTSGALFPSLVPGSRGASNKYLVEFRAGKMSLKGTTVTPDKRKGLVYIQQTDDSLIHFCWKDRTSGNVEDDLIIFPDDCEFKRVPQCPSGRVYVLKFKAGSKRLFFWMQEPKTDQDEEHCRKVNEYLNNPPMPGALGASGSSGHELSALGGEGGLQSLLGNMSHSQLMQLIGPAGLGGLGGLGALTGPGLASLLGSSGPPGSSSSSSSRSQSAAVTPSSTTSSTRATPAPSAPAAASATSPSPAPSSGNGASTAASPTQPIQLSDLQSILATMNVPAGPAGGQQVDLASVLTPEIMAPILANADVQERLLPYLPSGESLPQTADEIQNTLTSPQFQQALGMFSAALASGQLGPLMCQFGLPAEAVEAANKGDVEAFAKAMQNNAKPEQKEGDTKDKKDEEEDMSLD
UniProt Q03154: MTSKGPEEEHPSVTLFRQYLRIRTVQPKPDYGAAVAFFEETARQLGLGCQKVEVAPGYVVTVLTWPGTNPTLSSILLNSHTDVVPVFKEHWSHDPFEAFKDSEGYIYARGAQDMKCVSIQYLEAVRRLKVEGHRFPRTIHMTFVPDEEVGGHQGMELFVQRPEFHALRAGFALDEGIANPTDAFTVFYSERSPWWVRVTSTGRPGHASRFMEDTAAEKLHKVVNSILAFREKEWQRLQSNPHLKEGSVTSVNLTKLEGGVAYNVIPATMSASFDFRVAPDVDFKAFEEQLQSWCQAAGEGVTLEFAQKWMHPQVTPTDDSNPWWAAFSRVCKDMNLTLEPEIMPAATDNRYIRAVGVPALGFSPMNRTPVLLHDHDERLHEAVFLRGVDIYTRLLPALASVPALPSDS

Compound: CC1Cc2ccccc2N1C(=O)C1CCCN(C1)C(=O)CCl (mixture of isomers) [TRIM25 ligand 11 (diastereomer mixture)]
Assay: probe-labelled cysteine peptide fold change vs DMSO (competition) (log2 fold change); higher = less target engagement (more negative = stronger competition)
Settings: THP-1, incubation time: 4 h
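Also: competitive chemoproteomic profiling in live THP-1 cells with an iodoacetamide desthiobiotin (IA-DTB) probe, comparing probe-labelled peptide intensities in compound-treated cells against DMSO-treated controls.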

Row | Target | probe-labelled cysteine peptide fold change (10 µM) | probe-labelled cysteine peptide fold change (50 µM)
1 | ACSS2_Q9NR19_554_KFPGYYVTGDGCQR (UniProt Q9NR19) | 0.0828 | -0.0704
2 | ACTL6A_O96019_152_LTELMFEHYNIPAFFLCK (UniProt O96019) | -0.0461 | 0.0154
3 | ACSL5_Q9ULC5_288_CVEHAYEPTPDDVAISYLPLAHMFER (UniProt Q9ULC5) | 0.248 | 0.0966
4 | ACP1_P24666_91_EDFATFDYILCMDESNLR (UniProt P24666) | -0.151 | -0.0255
5 | ADAR_P55265_649_FQYCVAVGAQTFPSVSAPSKK (UniProt P55265) | -0.0879 | -0.0992
6 | ADRM1_Q16186_80_TSGNVEDDLIIFPDDCEFK (UniProt Q16186) | 0.0252 | 0.000474
7 | ACY1_Q03154_49_QLGLGCQK (UniProt Q03154) | 0.0526 | 0.164
